A: 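Polyketide synthase Pks13, Mycobacterium tuberculosis (UniProt I6X8D2). Enzyme assay of the thioesterase domain of polyketide synthase 13; the read-out is not stated. Compounds at 30 µM. Higher reads as stronger inhibition (inferred from which compounds were picked for retests). Of about 67,000 compounds tested this way, about 300 (0.46%) reached 50% or more in at least one test.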
B: 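Coenzyme A biosynthesis protein CoaBC, Mycobacterium tuberculosis (UniProt P9WNZ1). Enzyme assay of CoaBC with a phosphate dye (Biomol Green) read at 650 nm. Concentration: 30 µM. Direction is inferred from only a few compounds that gave an IC50; most scored high, so higher reads as stronger inhibition. Most strong results did not repeat in a second test. Of about 67,000 compounds tested this way, about 40 (0.06%) reached 50% or more in at least one test.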
C: 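Cell assay of Leishmania donovani living inside macrophages; the read-out is not stated. Concentration: 30 µM. The record gives no direction; compounds that gave an IC50 in retests scored well above the rest, so higher reads as stronger inhibition. Of about 69,000 compounds tested this way, about 1,000 (1.5%) reached 50% or more in at least one test.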
D: 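Tryptophan-tRNA ligase, Mycobacterium tuberculosis (UniProt P9WFT3). Enzyme assay of tryptophanyl-tRNA synthetase; the read-out is not stated. Compounds at 10 µM. Direction is not recorded; retested compounds ran higher, which suggests that high means inhibition. Size under these conditions: about 65,000 compounds, about 64 of them at 50% or above in at least one test.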

Amino acid sequences for entries named in this document (tags omitted).
UniProt I6X8D2, whole entry: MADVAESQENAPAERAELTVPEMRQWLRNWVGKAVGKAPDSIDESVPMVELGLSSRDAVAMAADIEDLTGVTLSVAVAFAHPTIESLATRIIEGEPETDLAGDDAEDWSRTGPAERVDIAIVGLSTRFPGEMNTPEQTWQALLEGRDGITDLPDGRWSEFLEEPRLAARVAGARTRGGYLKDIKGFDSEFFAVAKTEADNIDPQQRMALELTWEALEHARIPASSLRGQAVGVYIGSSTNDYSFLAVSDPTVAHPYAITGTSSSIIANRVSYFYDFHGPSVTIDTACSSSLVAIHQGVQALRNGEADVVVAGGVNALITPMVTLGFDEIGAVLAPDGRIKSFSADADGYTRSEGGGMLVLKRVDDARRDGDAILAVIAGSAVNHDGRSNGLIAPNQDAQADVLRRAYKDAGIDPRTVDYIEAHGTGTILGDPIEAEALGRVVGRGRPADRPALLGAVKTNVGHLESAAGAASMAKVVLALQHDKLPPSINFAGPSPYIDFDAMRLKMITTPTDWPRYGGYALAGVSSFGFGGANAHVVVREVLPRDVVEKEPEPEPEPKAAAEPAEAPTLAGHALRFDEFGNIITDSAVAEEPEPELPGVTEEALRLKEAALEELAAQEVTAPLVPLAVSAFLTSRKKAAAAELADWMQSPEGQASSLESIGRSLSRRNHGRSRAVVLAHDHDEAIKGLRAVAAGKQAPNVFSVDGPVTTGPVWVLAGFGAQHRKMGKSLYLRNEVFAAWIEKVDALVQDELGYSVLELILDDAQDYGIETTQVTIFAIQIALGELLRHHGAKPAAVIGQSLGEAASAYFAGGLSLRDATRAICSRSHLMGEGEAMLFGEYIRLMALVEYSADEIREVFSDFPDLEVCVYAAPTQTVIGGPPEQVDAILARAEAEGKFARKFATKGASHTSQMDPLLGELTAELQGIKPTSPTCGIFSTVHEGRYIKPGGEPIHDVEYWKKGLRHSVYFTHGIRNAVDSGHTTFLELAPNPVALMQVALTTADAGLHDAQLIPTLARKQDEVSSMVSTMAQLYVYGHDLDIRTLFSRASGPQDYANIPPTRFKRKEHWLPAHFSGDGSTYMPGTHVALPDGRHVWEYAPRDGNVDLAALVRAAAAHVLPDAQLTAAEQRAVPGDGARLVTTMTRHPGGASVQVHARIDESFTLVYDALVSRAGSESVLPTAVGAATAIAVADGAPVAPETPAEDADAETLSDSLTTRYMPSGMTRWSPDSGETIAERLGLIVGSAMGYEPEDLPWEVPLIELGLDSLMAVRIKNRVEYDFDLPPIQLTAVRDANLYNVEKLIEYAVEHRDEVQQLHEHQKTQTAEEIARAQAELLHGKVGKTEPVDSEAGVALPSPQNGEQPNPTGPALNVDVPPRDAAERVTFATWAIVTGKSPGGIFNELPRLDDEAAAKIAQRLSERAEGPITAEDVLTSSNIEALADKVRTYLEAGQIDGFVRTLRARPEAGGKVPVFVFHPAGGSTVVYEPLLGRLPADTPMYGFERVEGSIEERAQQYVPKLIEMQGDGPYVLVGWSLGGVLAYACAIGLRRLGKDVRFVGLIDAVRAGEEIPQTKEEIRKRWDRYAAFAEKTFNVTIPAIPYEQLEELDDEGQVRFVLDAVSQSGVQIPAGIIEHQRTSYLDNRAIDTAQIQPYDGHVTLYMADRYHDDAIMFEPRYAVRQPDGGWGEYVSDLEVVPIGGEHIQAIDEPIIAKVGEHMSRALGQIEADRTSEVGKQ
UniProt P9WNZ1, whole entry: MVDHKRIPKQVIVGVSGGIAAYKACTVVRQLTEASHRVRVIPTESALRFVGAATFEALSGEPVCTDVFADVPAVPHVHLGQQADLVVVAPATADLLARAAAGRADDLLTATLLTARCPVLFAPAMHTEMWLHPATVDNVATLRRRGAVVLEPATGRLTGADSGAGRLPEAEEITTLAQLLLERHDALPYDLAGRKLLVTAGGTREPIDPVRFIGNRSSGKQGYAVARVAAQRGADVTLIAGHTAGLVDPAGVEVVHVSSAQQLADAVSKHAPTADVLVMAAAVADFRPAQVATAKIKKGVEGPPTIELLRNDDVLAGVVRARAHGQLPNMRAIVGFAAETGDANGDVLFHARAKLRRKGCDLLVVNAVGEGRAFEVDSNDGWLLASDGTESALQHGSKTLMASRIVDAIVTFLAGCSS
UniProt P9WFT3, whole entry: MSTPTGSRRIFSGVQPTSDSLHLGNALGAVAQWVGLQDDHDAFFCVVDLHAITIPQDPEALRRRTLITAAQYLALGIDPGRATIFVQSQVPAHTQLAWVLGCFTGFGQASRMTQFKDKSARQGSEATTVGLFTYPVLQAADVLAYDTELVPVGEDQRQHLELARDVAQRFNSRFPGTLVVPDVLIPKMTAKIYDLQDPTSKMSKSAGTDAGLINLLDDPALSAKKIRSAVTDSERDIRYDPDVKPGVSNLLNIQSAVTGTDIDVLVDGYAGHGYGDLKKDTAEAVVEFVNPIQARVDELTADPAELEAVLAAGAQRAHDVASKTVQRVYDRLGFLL

Values are the deposited “Percent Effect”, in %.
The controls that fix the scale are not given in the record; negative values are as filed.
This is an unselected part of the compounds tested.
Two or more numbers in one place are separate tests of the same structure; such repeats can differ widely.
A dash means the value is not listed here; it may have been measured.

| # | Compound | A | B | C | D |
|---|---|---|---|---|---|
| 1 | `CN1CCOC(C(=O)Nc2nc(-c3ccc4c(c3)CCC4)n[nH]2)C1` (stereo not drawn) | 3.412 | 0.9677 | -2.768 | -0.6399 |
| 2 | `CN1CCC2(CCN(C(=O)c3ccccc3)CC2)C1` | -29.77 | -2.799 | 6.332 | -1.859 |
| 3 | `CC(C)=CCCC1(C)CCC(=O)N(CCc2csc(N)n2)C1` (stereo not drawn) | -11.71 | -4.426 | -20.85 | 4.393 |
| 4 | `O=C(NCC1CC(=O)N(CCc2ccccc2)C1)c1ccon1` (stereo not drawn) | -17.8 | 4.762 | 11.69 | -6.075 |
| 5 | `COCCNc1nc2c(c(N3CCn4nc(C)cc4C3)n1)CCNCC2` | -12.45 | -1.607 | 13.71 | 3.62 |
| 6 | `Cc1cnn(CC2CN(Cc3nc4ccccc4n3C)CCO2)c1` (stereo not drawn) | -16.55 | 2.35 | 20.11 | 10.28 |
| 7 | `CCCc1n[nH]c(C2CN(C(=O)CCc3cscn3)CCO2)n1` (stereo not drawn) | -30.27 | -1.535 | 6.269 | 0.208 |
| 8 | `O=C(CCC(=O)Nc1ccccc1)NCC(=O)c1ccc(F)cc1F` | -41.21 | - | 23.87 | 1.917 |
| 9 | `CS(=O)(=O)N1C[C@@H]2COC[C@@H](CC(=O)N3CCCCO3)[C@@H]2C1` | -28.08 | 1.018 | - | 18.58 |
| 10 | `Cc1nc2cc(C(=O)N(CCC#N)CCC#N)ccc2n1C` | 17.82 | 5.459 | 27.53 | -1.079 |
| 11 | `CC(=O)NC1CCCc2c1[nH]c1ccc(F)cc21` (stereo not drawn) | 0.5195 | 1.58 | 4.787 | 2.894 |
| 12 | `COc1ccc(-c2ccc(C3CNCCO3)nc2)cc1` (stereo not drawn) | -0.7613 | 0.9709 | - | - |
| 13 | `Cc1ccc(Cl)c(C(C(=O)O)N(C)Cc2cnn(C)c2)c1` (stereo not drawn) | -21.38 | 0.1255 | 32.75 | 2.287 |
| 14 | `Cc1ccc(S(=O)(=O)NCCNC(=O)c2ccoc2)cc1C` | -14.17 | 2.122 | 18.99 | -1.876 |
| 15 | `CC[C@@H](C)[C@@H](N)C(=O)Nc1cccc(-c2cnc(N)nc2)c1` | 6.507 | 2.048 | 14.72 & 11.86 | - |
| 16 | `Cc1cc(-n2c(C)cn(CN(C)Cc3ccccc3)c2=O)no1` | 29.5 | 6.214 | 4.216 | -4.289 |
| 17 | `O=C([C@@H]1CC[C@@H]2[C@@H](CCN2c2ccncn2)O1)N1CCCCO1` | 13.99 | 5.122 | - | - |
| 18 | `NC(=O)C(NC(=O)c1cc(Br)c[nH]1)c1ccccc1` (stereo not drawn) | -0.1324 | 10.74 | 3.899 | 15.65 |
| 19 | `CN(CCS(=O)(=O)c1cc(Cl)ccc1Cl)CC(=O)Nc1ccc(F)cc1` | 14.27 | 0.6329 | 27.33 | 3.349 |
| 20 | `Cc1ccc(O)c(CNc2cccc(CN3CCSCC3)c2)n1` | -11.64 | 16.99 | 6.923 | 2.196 |
| 21 | `CN1CCn2c(-c3cnn(C)c3)cnc2C12CCN(CC1CC1)CC2` | -13.13 | -4.167 | - | -0.7757 |
| 22 | `CC(C)NC(=O)C1CN(C(=O)NCc2ccccc2)CC12CCOCC2` (stereo not drawn) | -12.45 | -7.505 | 11.82 | 0.07639 |
| 23 | `O=C(O)C(F)(F)F.O=C(O)C(F)(F)F.[H][C@@]12COC[C@]1(COc1cccnc1)CN(C1CCOCC1)C2` | - | - | 41.52 | - |
| 24 | `CCn1nc2c(cc1=O)CN(Cc1nc(CCOC)no1)CC2` | 6.866 | -0.7772 | 28.17 | 0.6681 |
| 25 | `CS(=O)(=O)C1CCN(S(=O)(=O)c2ccc(F)c(F)c2)CC1` | 8.56 | 0.6017 | -2.266 | -1.467 |
| 26 | `CCN1CCN(C(=O)CCc2c(C)noc2Cl)CC1` | -8.994 | 10.52 | 27.55 | -3.216 |
| 27 | `CCOCC(=O)Nc1cc(-c2cccc(F)c2F)n[nH]1` | -31.96 | 9.428 | 20.55 | 1.161 |
| 28 | `COCCn1cc(NCc2c[nH]nc2-c2ccc(OC)cc2)cn1` | -6.552 | 2.2 | 30.12 | -0.7048 |
| 29 | `Cc1cc(C2NC(=O)CN2Cc2ccc(Br)cc2)cc(C)c1O` (stereo not drawn) | 5.737 | 0.4854 | -7.325 | -1.296 |
| 30 | `CC(CCc1ccccc1F)C(=O)NS(=O)(=O)N(C)C(C)C` (stereo not drawn) | -14.49 | 5.696 | 17.2 | -3.193 |
| 31 | `CCOc1ccccc1N1CCN(C(=O)c2cc[nH]n2)CC1` | -19.36 | 3.827 | 37.08 | -4.664 |
| 32 | `Cc1ccc(F)cc1NC(=O)NCC(C)N1CCOCC1` (stereo not drawn) | -19.36 | 8.075 | 3.805 | 3.94 |
| 33 | `Cc1nncn1CCNC(=O)C(C)(C)c1cccc(C(F)(F)F)c1` | -6.813 | 4.032 | 2.912 | -1.09 |
| 34 | `CNc1ncc2c(n1)CN(CCc1ccc(C)cc1)C2=O` | -4.129 | 3.571 | -18.09 | 4.074 |
| 35 | `CCn1nc(C)c(CNC(=O)NCC(C)(O)c2ccc(C)o2)c1C` (stereo not drawn) | -33.31 | 5.696 | 30.93 | -1.012 |
| 36 | `Cc1ncc2c(n1)CCCC2NC(=O)c1ccccc1C(=O)O` (stereo not drawn) | -1.691 | -2.651 | 38.92 | 1.877 |
| 37 | `Cc1ccc2c(c1)C(NC(=O)N(C)C)CC21CCN(C)CC1.O=C(O)C(F)(F)F` (stereo not drawn) | - | - | 7.308 | - |
| 38 | `COc1cccc(NC(=O)NCc2cnn(C)c2)c1` | -3.125 | 2.913 | -1.564 | 3.744 |
| 39 | `COc1ccc(CC(=O)N2CCCN(c3ccc(C#N)cc3)CC2)cc1` | -2.124 | 6.073 | 11.09 | 3.072 |
| 40 | `Cc1cnn(C2CN(Cc3nnc(C4CC4)o3)C2)c1` | -5.946 | 11.78 | -18.31 | -5.202 |
| 41 | `Cc1csc(N2CCCN(C(=O)c3ccoc3C)CC2)n1` | -3.623 | 1.567 | 30.46 | -5.9 |
| 42 | `CCNC(=O)CC1CC2(CCN(C(C)=O)CC2)c2cc(F)ccc21` (stereo not drawn) | -3.394 | 7.172 | -5.337 | -7.319 |
| 43 | `Cc1n[nH]cc1CNCc1ccnc(OCC(F)(F)F)c1` | -31.62 | 4.487 | - | -3.263 |
| 44 | `O=C(O)C(F)(F)F.O=C(O)C(F)(F)F.O=C(O)C(F)(F)F.[H][C@@]12CN(Cc3ccncc3)C[C@]1([H])[C@@H](OC)CCN2Cc1cccs1` | - | - | 22.1 | - |
| 45 | `COCCN1CCc2cc(C(=O)NC(C)C)c(NCC3CC3)nc2CC1` | 45.66 | 0.2469 | - | -5.898 |
| 46 | `COCCNc1nnc(S(=O)(=O)CCC(C)(C)C#N)s1` | -36.69 | -5.665 | 19.56 | -4.953 |
| 47 | `CC(=O)N1CCN(C(=O)c2c(Cl)c3ccccc3n2C)CC1` | - | 0.1248 | 17.23 | -1.407 |
| 48 | `COc1c(C2CCCN2CCOc2ccccc2C#N)c(C)nn1C` (stereo not drawn) | -4.805 | 0.6242 | 9.091 | -0.3127 |
| 49 | `Nc1ncnc2[nH]c(N3CCCCC3)nc12` | -15.96 | 8.949 | 7.31 | 2.365 |
| 50 | `COCCN1CCOCC12CCN(C(=O)Cc1cccs1)CC2` | -34.68 | 10.45 | - | -6.587 |
| 51 | `O=C1CC(C2CCCCC2)c2c(n(C3CCCC3)[nH]c2=O)N1` (stereo not drawn) | -5.888 | 0.3764 | 17.94 | -3.707 |
| 52 | `Cn1ccc(C(=O)N2CCC(Cc3cnc4[nH]ccc4c3)CC2)n1` | -36.88 | -5.278 | 27.84 | 1.254 |
| 53 | `O=C1CC(NS(=O)(=O)N2CCOCC2)CN1Cc1ccccc1` (stereo not drawn) | 0.07685 | 4.781 | 18.26 | -0.2865 |
| 54 | `Cc1cc(C(=O)N2CCN(c3nc4c(C(C)C)cccc4s3)CC2)on1` | 34.12 | 4.358 | -1.135 | 4.997 |
| 55 | `CC(C)=CCC1(C(=O)O)CCCN(c2ccnc(C)n2)C1` (stereo not drawn) | -19.32 | 3.023 | 8.203 | 2.571 |
| 56 | `CCc1nccn1C1CCCN(C(=O)c2cccc3c2OCO3)C1` (stereo not drawn) | -6.476 | 10.56 | 32.13 | -0.8045 |
| 57 | `[H][C@@]12COC[C@]1(COc1ccc(C#N)cn1)CN(c1ncccn1)C2` | - | - | -11.64 | - |
| 58 | `O=C(O)C(F)(F)F.[H][C@]12CCCN(Cc3cccs3)[C@@]1([H])CN(S(C)(=O)=O)C2` | - | - | 12.38 & -23.34 | - |
| 59 | `COCCNC(=O)c1ccc(NCc2csc(C)n2)cc1Cl` | -5.755 | -0.6075 | 11.79 | 2.09 |
| 60 | `O=C(O)C(F)(F)F.O=C(O)C(F)(F)F.c1cncc(OCc2noc3c2CN(Cc2ccco2)CC3)c1` | - | - | 20.97 | - |
| 61 | `CC(C)(C)OC(=O)N1CCCCC(NC(=O)CCc2cccnc2)C1` (stereo not drawn) | - | 7.231 | -20.58 | -0.7802 |
| 62 | `COCC(=O)NCC1CCN(Cc2ccsc2)CC1` | -3.443 | -2.286 | 6.73 | -0.7337 |

The first 3 entries again:

Compound,A,B,C,D
CN1CCOC(C(=O)Nc2nc(-c3ccc4c(c3)CCC4)n[nH]2)C1 (stereo not drawn),3.412,0.9677,-2.768,-0.6399
CN1CCC2(CCN(C(=O)c3ccccc3)CC2)C1,-29.77,-2.799,6.332,-1.859
CC(C)=CCCC1(C)CCC(=O)N(CCc2csc(N)n2)C1 (stereo not drawn),-11.71,-4.426,-20.85,4.393

Data taken from ChEMBL document CHEMBL3988442, “University of Dundee, Small-Polar-MMV Screening Library” (2021).